This passage reports cell number change and AC50 results from PubChem BioAssay AID2685 (National Center for Advancing Translational Sciences (NCATS), 2010).

The other results are listed elsewhere or left out. These are further read-outs of the screen, such as a control signal, another cell line or another target. No call is given for them. Compounds called inactive in the main read-out are mostly missing here. Words in brackets tell the shape of the fitted curve; partial curves, single points and poor fits give uncertain potencies.

This assay can be described thus: qHTS Assay for Lipid Storage Modulators in Drosophila S3 Cells.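 As to cell number change: cells counted by Cell Tracker Red CMTPX staining in the red channel.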 The conditions noted are these: BODIPY lipid droplet fluorescence, 18-24 h; for cell number change: measured here: cell count max response, cells fed with added oleic acid. In outline: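 Drosophila S3 cells loaded with oleic acid (400 uM, as added) and compounds at several concentrations; lipid droplets imaged by 488-nm laser-scanning cytometry, 500–530 nm intensity and object ratio to cell channel. Percent activity normalized to 20 uM Triacsin C.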

[1] abbreviates: measured here: lipid fluorescence (Fed channel) AC50, cells fed with added oleic acid.
Setting [2] is: measured here: cell number channel AC50, cells fed with added oleic acid.

The term AC50 denotes the concentration at which the activity in the assay is half-maximal. Read a low AC50 as activity at low concentration. Regarding `FC(F)(F)c1cccc(NC(=S)NNC(=S)NCc2ccccc2)c1`, the cell number change was -27.2%. In addition, under setting [1], the AC50 is 29.1 µM [falling, single point].

Turning to `O=C(O)c1cccc(N2C(=O)/C(=C/c3ccc([N+](=O)[O-])cc3)C=C2c2ccccc2)c1`, the cell number change was -12%. Under setting [1], the AC50 is 25.9 µM [falling, single point].

In the case of `Cc1ccccc1NC(=O)c1ccccc1-c1ccccc1`, under setting [2], the AC50 was 4.61 µM [falling, partial curve, poor fit].

Turning to `COc1cccc(NC(=O)CN2CCN(S(=O)(=O)c3ccc(C(C)C)cc3)CC2)c1`, the cell number change was -2.91%. Moreover, the AC50 under setting [1] was 0.103 µM [falling, full curve, poor fit].

On to `Cc1cccc(-n2cc(-c3ccccc3)c3c(=O)[nH]cnc32)c1`, for which the cell number change is -16.3%. For the same compound, the AC50 under setting [1] is 0.326 µM [falling, full curve].

With `CCC(CC)c1nnc(NC(=O)CS(=O)(=O)c2ccccc2)s1`, the cell number change came to 10.1%. In addition, the AC50 under setting [1] was 13 µM [rising, partial curve].

For `Cc1ccc(-c2nnc(Nc3ccc4c(c3)OCO4)c3ccccc23)cc1S(N)(=O)=O`, the cell number change is -15.4%.

Turning to `C=CCNC(=S)Nc1sc2c(c1C(N)=O)CCCC2`, the cell number change was -6.97%. Besides, the AC50 under setting [1] was 0.517 µM [rising, partial curve].

For `CC(C)C(=O)Nc1cc(C(F)(F)F)ccc1N1CCOCC1`, the AC50 under setting [1] was 0.82 µM [rising, single point].

As to `CCNC(=O)c1ccccc1NC(=O)c1cccc(S(=O)(=O)N2CCOCC2)c1`, the cell number change was -40%. In addition, the AC50 under setting [2] was 29.1 µM [falling, single point]. In addition, under setting [1], the AC50 is 0.58 µM [rising, full curve, poor fit].

Take `Cc1ccc(S(=O)(=O)NC2=NCN(C(C)C)CN2)cc1`: the cell number change is -13.2%.

For `O=C(O)CS(=O)CC(=O)Nc1cccc(C(F)(F)F)c1` (configuration not stated), the cell number change worked out at 7.64%.

As for `CC(C)N1C(=O)c2ccccc2C1C(=O)NCCc1ccccc1` (configuration not stated), the cell number change amounted to 9.91%. The AC50 under setting [2] was 6.51 µM [rising, single point].

For `O=C(Nc1cccc(C(F)(F)F)c1)Nc1ccc2[nH]c(=O)[nH]c2c1`, the cell number change was -17%.

Regarding `CCC(C)NC(=O)Cn1c(=O)n(CCCC(=O)NCc2ccccc2Cl)c(=O)c2ccccc21` (configuration not stated), the cell number change amounted to 11.4%. The AC50 under setting [2] is 0.517 µM [rising, partial curve, poor fit]. Moreover, the concentration at half-maximal activity (AC50) under setting [1] was 4.61 µM [rising, partial curve].

Regarding `COc1ccc(C(=O)NC2CCCCCC2)cc1OC1CCN(C(C)=O)CC1`, the cell number change stood at 2.75%.

Take `CC(C)Oc1ccc(C(=O)NC(C)(C)CO)cc1`: the cell number change is 2.97%.

For `COc1ccc(/C=C2\SC(=S)N(CCC(=O)N3CCCCC3CCO)C2=O)cc1` (configuration not stated), the AC50 under setting [1] was 18.4 µM [falling, single point].

Regarding `Cc1ccc2oc(C(=O)NCc3ccc4c(c3)OCO4)c(C)c2c1`, the cell number change is -8.48%. The concentration at half-maximal activity (AC50) under setting [1] was 29.1 µM [rising, single point].

In the case of `COc1cc2cnc(-c3ccccc3)c(-c3ccc([N+](=O)[O-])cc3)c2cc1OC`, the cell number change is -18.6%. The half-maximal activity concentration (AC50) under setting [1] was 0.0058 µM [rising, full curve, poor fit].

Consider `CCOc1ccc(NC(=O)c2cnsn2)cc1`, for which the cell number change is -19.1%. Also, under setting [2], the concentration at half-maximal activity (AC50) is 0.146 µM [falling, full curve, poor fit].

As to `COc1ccc(C2CC(c3ccccc3)=NN2S(=O)(=O)c2ccccc2)cc1` (configuration not stated), the cell number change is -26.6%.

As to `Cc1ccc2nc(-c3cccc(NS(C)(=O)=O)c3)cc(-c3ccccc3)c2c1`, the cell number change is -21.2%. For the same compound, the AC50 under setting [1] was 25.9 µM [falling, single point].

Consider `C=CCSc1nnc(COc2ccc(=O)n(-c3ccccc3)n2)n1CC`, for which the cell number change was -1.3%. The AC50 under setting [2] is 0.58 µM [rising, single point].

In the case of `Cc1nnc(SCC(=O)N2CCCC(N3CCN(c4ccc(F)cc4)CC3)C2)o1` (configuration not stated), the cell number change was -5.45%. For the same compound, the AC50 under setting [1] was 0.58 µM [falling, single point].

On to `CC(C)C(NC(=O)c1ccccc1)C(=O)OCn1nnc2ccccc2c1=O` (configuration not stated), for which, under setting [1], the AC50 is 20.6 µM [falling, partial curve].

As to `Cc1cc(C)c(C(=O)C2OC(=O)C(C)(C)C(=O)C2(C)C)c(C)c1` (configuration not stated), the cell number change was -33%. Under setting [2], the AC50 was 0.92 µM [falling, full curve, poor fit].

For `CCc1noc(C)c1C(=O)Nc1cc(Cl)ccc1-n1cncn1`, the cell number change was -75.5%. Further, the AC50 under setting [2] was 29.1 µM [falling, single point].

As to `COc1ccc(/C=N/NC(=O)c2ccoc2C)cc1O`, the cell number change is -24.1%. In addition, the AC50 under setting [2] is 0.00461 µM [falling, full curve, poor fit].

With `O=C(Cc1cccs1)N/N=C/C(Br)=C/c1ccccc1`, the cell number change was -71.9%. Besides, the AC50 under setting [2] is 20.6 µM [falling, partial curve]. The AC50 under setting [1] is 5.8 µM [falling, full curve].

For `COc1cc(NC(=S)Nc2ccccn2)cc(OC)c1OC`, the cell number change was 12.3%. The AC50 under setting [2] is 0.82 µM [rising, full curve, poor fit]. Under setting [1], the concentration at half-maximal activity (AC50) is 1.16 µM [rising, full curve].

With `COC(=O)c1ccc(OS(=O)(=O)c2ccc(NC(C)=O)cc2)cc1`, the cell number change came out at 13.1%. For the same compound, under setting [1], the AC50 is 6.51 µM [rising, single point].

Regarding `CC(C(=O)O)N(C(=O)c1ccccc1)c1ccc(F)cc1` (configuration not stated), the cell number change is 21.2%. Also, the concentration at half-maximal activity (AC50) under setting [1] is 29.1 µM [rising, single point].

As to `CN(C(=O)c1cccc(C#N)c1)c1nnc(C2CCCO2)s1` (configuration not stated), the cell number change turned out to be 4.91%.

Regarding `COc1ccc(CCNCC(=O)Nc2ccc(OC(F)(F)F)cc2)cc1OC`, the cell number change was 12%. In addition, under setting [1], the AC50 was 20.6 µM [falling, single point].

As for `C/C(=N/Nc1ccnc2cc(Cl)ccc12)c1ccc(N)cc1`, the cell number change is -41.9%. For the same compound, the concentration at half-maximal activity (AC50) under setting [2] was 14.6 µM [falling, single point]. Further, under setting [1], the AC50 was 23.1 µM [falling, single point].

For the compound `COc1ccc2nc(C)cc(SCC(=O)NNC(=O)COc3ccccc3)c2c1`, the cell number change is -12.9%. The AC50 under setting [1] was 10.3 µM [falling, single point].

For `Cc1ccc(Sc2ncccc2C(=O)O)cc1C`, the cell number change was -7.72%. Further, the AC50 under setting [2] was 6.51 µM [falling, single point]. Under setting [1], the AC50 is 0.366 µM [rising, partial curve].

In the case of `N#Cc1ccc(S(=O)(=O)NC2CC2)cc1`, the AC50 under setting [2] was 0.0461 µM [rising, full curve] and the half-maximal activity concentration (AC50) under setting [1] was 35.5 µM [rising, single point].

On to `CC(c1ccc(Br)cc1)N1CC23C=CC(O2)C(C(=O)O)C3C1=O` (configuration not stated), for which the cell number change stood at 36%. Under setting [2], the AC50 was 6.51 µM [rising, single point]. In addition, the AC50 under setting [1] was 29.1 µM [rising, partial curve, poor fit].

With `CCN(C(=O)CN1C(=O)c2ccccc2S1(=O)=O)C1CCCCC1`, the cell number change was -14.1%.

Consider `CN1CCN(C(=O)CCNC(=O)Cn2ccc3ccccc3c2=O)CC1`, for which the cell number change turned out to be 4.9%. Besides, the concentration at half-maximal activity (AC50) under setting [1] is 0.00461 µM [falling, full curve, poor fit].

Turning to `COC(=O)CNC(=O)C(C)NC(=O)OCc1ccccc1` (configuration not stated), the cell number change is -3.94%. Also, the AC50 under setting [1] is 0.0517 µM [falling, full curve].

Turning to `COc1ccc(NC(=O)C2CCC2)cc1S(=O)(=O)N1CCOCC1`, the cell number change was 0.871%. Also, under setting [1], the AC50 is 1.84 µM [rising, partial curve].

For `Cc1sc2nc(CN3CCOCC3)nc(N3CCOCC3)c2c1C`, the AC50 is 1.46 µM [rising, partial curve] under setting [2] and 3.66 µM [rising, partial curve, poor fit] under setting [1].

In the case of `CN(C)CCCN(C(=O)CCc1ccccc1)c1nc2ccc(Cl)cc2s1`, the cell number change is -39.1%. Under setting [2], the AC50 is 14.6 µM [falling, partial curve, poor fit]. Under setting [1], the AC50 is 14.6 µM [falling, single point].

On to `COc1ccc(CN2C(=NC(=O)c3ccccc3)SC3CS(=O)(=O)CC32)cc1OC` (configuration not stated), for which the cell number change is -34.7%. Moreover, under setting [2], the AC50 is 14.6 µM [falling, partial curve]. In addition, the AC50 under setting [1] is 29.1 µM [falling, single point].

In the case of `CC(C)Sc1nc2ccsc2c(=O)[nH]1`, the cell number change worked out at 7.86%. The half-maximal activity concentration (AC50) under setting [2] was 6.51 µM [falling, single point].

Take `Cc1ccsc1C(=O)OCC(=O)Nc1cccc(S(=O)(=O)NC2=NCCCCC2)c1`: the half-maximal activity concentration (AC50) under setting [1] was 6.51 µM [rising, single point].

Regarding `CC(=O)N1CCCN(Cc2cn(-c3ccc(C)cc3)nc2-c2ccc(F)cc2)CC1`, the cell number change stood at 1.91%. In addition, the AC50 under setting [1] was 29.1 µM [rising, single point].

With `O=C(Nc1cccc(-c2cn3ccccc3n2)c1)c1cccc(Cl)c1`, the cell number change was -143%. In addition, under setting [1], the AC50 was 23.1 µM [falling, single point].

For the compound `O=C(c1cccn2c(=O)c3cc(Cl)ccc3nc12)N1CCOCC1`, the AC50 under setting [1] is 6.51 µM [falling, partial curve, poor fit].

Turning to `N#CC1=C(N)c2ccccc2CC12CCCCC2`, the cell number change is -38.2%. Further, the AC50 under setting [2] was 23.1 µM [falling, single point].

As for `O=C(O)c1cc(-c2ccccc2)nc2ccccc12`, the cell number change stood at 5.24%. Besides, the concentration at half-maximal activity (AC50) under setting [1] is 29.1 µM [rising, single point].

For `Cc1ccc(NC(=O)c2ccc3c(c2)OCO3)cc1Cl`, the cell number change is -11.2%. For the same compound, under setting [1], the AC50 is 0.00517 µM [falling, full curve, poor fit].

On to `COc1cccc(NC(=O)C(=O)N2CCOCC2)c1`, for which the cell number change is 1.13%. The AC50 under setting [1] was 0.259 µM [falling, partial curve, poor fit].

In the case of `CCN(CC(=O)NC1CCS(=O)(=O)C1)S(=O)(=O)c1cccc(C(C)=O)c1` (configuration not stated), the cell number change is -39.2%. In addition, the AC50 under setting [2] was 0.184 µM [falling, full curve]. In addition, under setting [1], the AC50 was 0.517 µM [falling, full curve].

As to `O=C(Nc1cccc(NC(=O)c2ccco2)c1)c1cccc(Br)c1`, the cell number change is 24.6%. In addition, the AC50 under setting [1] was 1.16 µM [rising, single point].

On to `COc1cc(NC(=O)c2ccc([N+](=O)[O-])cc2)ccc1NC(=O)C(C)C`, for which the cell number change is -3.43%.

Take `CCOC(=O)N1CCN(C(=O)C(CC(C)C)NS(=O)(=O)c2ccc(C)cc2)CC1` (configuration not stated): the cell number change came out at 1.5%. In addition, the AC50 under setting [1] was 29.1 µM [falling, single point].

Take `CN1CCC(N(C)S(=O)(=O)c2ccc(F)cc2F)CC1`: the cell number change was 44.4%. Besides, the concentration at half-maximal activity (AC50) under setting [2] is 0.164 µM [rising, full curve]. For the same compound, the AC50 under setting [1] was 0.58 µM [rising, single point].
